B1: 73W 72A 74F (protein, listed as Rattus norvegicus)
chain: AFDGTWKVDRNENYEKFMEKMGINVVKRKLGAHDNLKLTITQEGNKFTVKESSNFRNIDVVFELGVDFAYSAWFGTELTGTWTMEGNKLVGKFKRVDNGKELIAVREISGNELIQTYTYEGVEAKRIFKKE
modifications: PEPTIDE (1)...(131) wild-type rat intestinal fatty acid binding protein
B2: 72G 73W (protein, listed as Rattus norvegicus)
chain: AFDGTWKVDRNENYEKFMEKMGINVVKRKLGAHDNLKLTITQEGNKFTVKESSNFRNIDVVFELGVDFAYSGWDGTELTGTWTMEGNKLVGKFKRVDNGKELIAVREISGNELIQTYTYEGVEAKRIFKKE
modifications: PEPTIDE (1)...(131) wild-type rat intestinal fatty acid binding protein
B3: 72A 73W 74V (protein, listed as Rattus norvegicus)
chain: AFDGTWKVDRNENYEKFMEKMGINVVKRKLGAHDNLKLTITQEGNKFTVKESSNFRNIDVVFELGVDFAYSAWVGTELTGTWTMEGNKLVGKFKRVDNGKELIAVREISGNELIQTYTYEGVEAKRIFKKE
modifications: PEPTIDE (1)...(131) wild-type rat intestinal fatty acid binding protein
B4: 72T 73V 74V (protein, listed as Rattus norvegicus)
chain: AFDGTWKVDRNENYEKFMEKMGINVVKRKLGAHDNLKLTITQEGNKFTVKESSNFRNIDVVFELGVDFAYSTVVGTELTGTWTMEGNKLVGKFKRVDNGKELIAVREISGNELIQTYTYEGVEAKRIFKKE
modifications: PEPTIDE (1)...(131) wild-type rat intestinal fatty acid binding protein
B5: 72A 73P 74V (protein, listed as Rattus norvegicus)
chain: AFDGTWKVDRNENYEKFMEKMGINVVKRKLGAHDNLKLTITQEGNKFTVKESSNFRNIDVVFELGVDFAYSAPVGTELTGTWTMEGNKLVGKFKRVDNGKELIAVREISGNELIQTYTYEGVEAKRIFKKE
modifications: PEPTIDE (1)...(131) wild-type rat intestinal fatty acid binding protein
B6: 72S 73M 74A (protein, listed as Rattus norvegicus)
chain: AFDGTWKVDRNENYEKFMEKMGINVVKRKLGAHDNLKLTITQEGNKFTVKESSNFRNIDVVFELGVDFAYSSMAGTELTGTWTMEGNKLVGKFKRVDNGKELIAVREISGNELIQTYTYEGVEAKRIFKKE
modifications: PEPTIDE (1)...(131) wild-type rat intestinal fatty acid binding protein
B7: 21F 78V 102V 72A (protein, listed as Rattus norvegicus)
chain: AFDGTWKVDRNENYEKFMEKFGINVVKRKLGAHDNLKLTITQEGNKFTVKESSNFRNIDVVFELGVDFAYSAADGTEVTGTWTMEGNKLVGKFKRVDNGKEVIAVREISGNELIQTYTYEGVEAKRIFKKE
modifications: PEPTIDE (1)...(131) wild-type rat intestinal fatty acid binding protein
B8: 72T 73V 74L (protein, listed as Rattus norvegicus)
chain: AFDGTWKVDRNENYEKFMEKMGINVVKRKLGAHDNLKLTITQEGNKFTVKESSNFRNIDVVFELGVDFAYSTVLGTELTGTWTMEGNKLVGKFKRVDNGKELIAVREISGNELIQTYTYEGVEAKRIFKKE
modifications: PEPTIDE (1)...(131) wild-type rat intestinal fatty acid binding protein
B9: 18V 31A 73W 72A (protein, listed as Rattus norvegicus)
chain: AFDGTWKVDRNENYEKFVEKMGINVVKRKLAAHDNLKLTITQEGNKFTVKESSNFRNIDVVFELGVDFAYSAWDGTELTGTWTMEGNKLVGKFKRVDNGKELIAVREISGNELIQTYTYEGVEAKRIFKKE
modifications: PEPTIDE (1)...(131) wild-type rat intestinal fatty acid binding protein
B10: 72S 73P 74I (protein, listed as Rattus norvegicus)
chain: AFDGTWKVDRNENYEKFMEKMGINVVKRKLGAHDNLKLTITQEGNKFTVKESSNFRNIDVVFELGVDFAYSSPIGTELTGTWTMEGNKLVGKFKRVDNGKELIAVREISGNELIQTYTYEGVEAKRIFKKE
modifications: PEPTIDE (1)...(131) wild-type rat intestinal fatty acid binding protein
B11: 21Y 78I 102I 72A (protein, listed as Rattus norvegicus)
chain: AFDGTWKVDRNENYEKFMEKYGINVVKRKLGAHDNLKLTITQEGNKFTVKESSNFRNIDVVFELGVDFAYSAADGTEITGTWTMEGNKLVGKFKRVDNGKEIIAVREISGNELIQTYTYEGVEAKRIFKKE
modifications: PEPTIDE (1)...(131) wild-type rat intestinal fatty acid binding protein
B12: 72T 74I (protein, listed as Rattus norvegicus)
chain: AFDGTWKVDRNENYEKFMEKMGINVVKRKLGAHDNLKLTITQEGNKFTVKESSNFRNIDVVFELGVDFAYSTAIGTELTGTWTMEGNKLVGKFKRVDNGKELIAVREISGNELIQTYTYEGVEAKRIFKKE
modifications: PEPTIDE (1)...(131) wild-type rat intestinal fatty acid binding protein
B13: 72T 73Q 74A (protein, listed as Rattus norvegicus)
chain: AFDGTWKVDRNENYEKFMEKMGINVVKRKLGAHDNLKLTITQEGNKFTVKESSNFRNIDVVFELGVDFAYSTQAGTELTGTWTMEGNKLVGKFKRVDNGKELIAVREISGNELIQTYTYEGVEAKRIFKKE
modifications: PEPTIDE (1)...(131) wild-type rat intestinal fatty acid binding protein
B14: 72T 73V 74S (protein, listed as Rattus norvegicus)
chain: AFDGTWKVDRNENYEKFMEKMGINVVKRKLGAHDNLKLTITQEGNKFTVKESSNFRNIDVVFELGVDFAYSTVSGTELTGTWTMEGNKLVGKFKRVDNGKELIAVREISGNELIQTYTYEGVEAKRIFKKE
modifications: PEPTIDE (1)...(131) wild-type rat intestinal fatty acid binding protein
B15: 72T 73V 74A (protein, listed as Rattus norvegicus)
chain: AFDGTWKVDRNENYEKFMEKMGINVVKRKLGAHDNLKLTITQEGNKFTVKESSNFRNIDVVFELGVDFAYSTVAGTELTGTWTMEGNKLVGKFKRVDNGKELIAVREISGNELIQTYTYEGVEAKRIFKKE
modifications: PEPTIDE (1)...(131) wild-type rat intestinal fatty acid binding protein
B16: 72W 73T 74G (protein, listed as Rattus norvegicus)
chain: AFDGTWKVDRNENYEKFMEKMGINVVKRKLGAHDNLKLTITQEGNKFTVKESSNFRNIDVVFELGVDFAYSWTGGTELTGTWTMEGNKLVGKFKRVDNGKELIAVREISGNELIQTYTYEGVEAKRIFKKE
modifications: PEPTIDE (1)...(131) wild-type rat intestinal fatty acid binding protein
B17: 72S 73L 74A (protein, listed as Rattus norvegicus)
chain: AFDGTWKVDRNENYEKFMEKMGINVVKRKLGAHDNLKLTITQEGNKFTVKESSNFRNIDVVFELGVDFAYSSLAGTELTGTWTMEGNKLVGKFKRVDNGKELIAVREISGNELIQTYTYEGVEAKRIFKKE
modifications: PEPTIDE (1)...(131) wild-type rat intestinal fatty acid binding protein
B18: 72T 74V (protein, listed as Rattus norvegicus)
chain: AFDGTWKVDRNENYEKFMEKMGINVVKRKLGAHDNLKLTITQEGNKFTVKESSNFRNIDVVFELGVDFAYSTAVGTELTGTWTMEGNKLVGKFKRVDNGKELIAVREISGNELIQTYTYEGVEAKRIFKKE
modifications: PEPTIDE (1)...(131) wild-type rat intestinal fatty acid binding protein
B19: 72T 73W 74L (protein, listed as Rattus norvegicus)
chain: AFDGTWKVDRNENYEKFMEKMGINVVKRKLGAHDNLKLTITQEGNKFTVKESSNFRNIDVVFELGVDFAYSTWLGTELTGTWTMEGNKLVGKFKRVDNGKELIAVREISGNELIQTYTYEGVEAKRIFKKE
modifications: PEPTIDE (1)...(131) wild-type rat intestinal fatty acid binding protein
B20: 72S 73V 74V (protein, listed as Rattus norvegicus)
chain: AFDGTWKVDRNENYEKFMEKMGINVVKRKLGAHDNLKLTITQEGNKFTVKESSNFRNIDVVFELGVDFAYSSVVGTELTGTWTMEGNKLVGKFKRVDNGKELIAVREISGNELIQTYTYEGVEAKRIFKKE
modifications: PEPTIDE (1)...(131) wild-type rat intestinal fatty acid binding protein
B21: 72T 73V 74N (protein, listed as Rattus norvegicus)
chain: AFDGTWKVDRNENYEKFMEKMGINVVKRKLGAHDNLKLTITQEGNKFTVKESSNFRNIDVVFELGVDFAYSTVNGTELTGTWTMEGNKLVGKFKRVDNGKELIAVREISGNELIQTYTYEGVEAKRIFKKE
modifications: PEPTIDE (1)...(131) wild-type rat intestinal fatty acid binding protein
B22: 72T 73W 74E (protein, listed as Rattus norvegicus)
chain: AFDGTWKVDRNENYEKFMEKMGINVVKRKLGAHDNLKLTITQEGNKFTVKESSNFRNIDVVFELGVDFAYSTWEGTELTGTWTMEGNKLVGKFKRVDNGKELIAVREISGNELIQTYTYEGVEAKRIFKKE
modifications: PEPTIDE (1)...(131) wild-type rat intestinal fatty acid binding protein

The first data set in a line: Baseline fluorescence ratio Ro of probe in absence of analyte. As to conditions: baseline fluorescence ratio of probe.
As to B1, the Ro is 0.567.

Regarding B2, the Ro turned out to be 0.602.

Turning to B3, the Ro was determined as 0.393. Still for that read-out and setting: with B4 the figure was 0.215; with B5, 0.377. For B6, the Ro is reported as 0.358. In the case of B7, the Ro was 0.288.

B8: the Ro was found to be 0.386. Turning to B9, the Ro is given as 0.352. Take B10: the Ro turned out to be 0.324. Turning to B11, the Ro came out at 0.291. On the same count and under the same terms, with B12 the figure was 0.269; with B13, 0.257. The same measure, in the same setting: with B14 the figure was 0.241; with B15, 0.242. Still for that read-out and setting: with B16 the figure was 0.500. On to B17, for which the Ro came out at 0.347. As for B18, the Ro turned out to be 0.249. As to B19, the Ro is given as 0.292. As for B20, the Ro is listed as 0.356. On to B21, for which the Ro was 0.280. Consider B22, for which the Ro came to 0.312.

Staying with this data set, now noted: baseline fluorescence ratio of probe, no fatty acid.
B3: the Ro stood at 0.393.

Regarding B5, the Ro was 0.377.

Source of the values: patent US20060257938A1, “Method of screening for drugs that block ligand binding to a lipid binding protein” (priority 2005, published 2006).
